PubChem BioAssay AID1117291 (Broad Institute, 2014)
The shares of active, inactive and inconclusive entries below differ from those in the screen. Activity calls are given as the source filed them.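 The calls were made as follows: active = compound whose fitted half-maximal potency lies at or below double its highest tested dose in every test; inconclusive = tests disagree, or a flat partial loss, or a poor fit; inactive = every test inactive.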

Assay: hepatoma cell viability loss – CellTiter-Glo luminescence, dry powder, set 20, cytotoxicity control, dose response (AID 1117291)
Details: HepG2 viability, CellTiter-Glo ATP luminescence, 72 h; at 26 µM (top of the series)

Compound | activity change, negative = cytotoxicity
CC(=O)N1CCN(C(=O)C2(NC(=O)Nc3ccc(C(F)(F)F)cc3)CCCC2)CC1 | inactive: -26.9%
CC(=O)N1CCN(C(=O)C2(NC(=O)Nc3ccc(C)cc3)CC2)CC1 | inactive: -23.3%
COc1ccc(C(=O)Nc2cc(C)ccc2N2CCCCC2)cc1S(=O)(=O)O | inconclusive: -6.99%
COc1ccc(C(=O)Nc2cccc(C(F)(F)F)c2)cc1S(=O)(=O)O | inconclusive: -11.2%
Cc1ccc(NC(=O)NC2(C(=O)N3CCNCC3)CCCCC2)cc1 | inconclusive: 23.8%
